Reference: paper PMC11559061
Results are given in words; binding and its absence hold for the method and conditions named. Binding seen in cells or lysates may run through a third protein. Here binding means that the protein was enriched with, or labelled near, the bait; the list need not be complete. Where a sequence is shown, tags or fusion partners need not be part of it.

Target: T1, YFP-Fpa (B. subtilis Fpa, formerly YlaN, fused N-terminally to YFP) (B. subtilis) (UniProt O07638)
T1 sequence: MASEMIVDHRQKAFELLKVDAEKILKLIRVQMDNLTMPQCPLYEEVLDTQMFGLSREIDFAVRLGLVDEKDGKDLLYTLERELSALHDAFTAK
Experiment: affinity purification with mass spectrometry; YFP-Fpa immunopurified on GFP-Trap magnetic agarose from B. subtilis lysate (exponential and stationary phase cells), 4°C, lysis buffer with 200 mM NaCl, 0.25% Triton-X; GFP-only strain as control; co-isolated proteins identified by nLC-MS/MS

B1: Fur (ferric uptake regulator) of B. subtilis (protein, UniProt P54574 1-149)
chain: MENRIDRIKKQLHSSSYKLTPQREATVRVLLENEEDHLSAEDVYLLVKEKSPEIGLATVYRTLELLTELKVVDKINFGDGVSRYDLRKEGAAHFHHHLVCMECGAVDEIEEDLLEDVEEIIERDWKFKIKDHRLTFHGICHRCNGKETE
In the case of B1, the binding is reported as “binds”.
